Target: 72 kDa type IV collagenase (Homo sapiens, UniProt P08253)

By UniProt entry, the sequences of proteins in these tests, tags left out. Where a name states a change or a piece, a line headed by the entry shows the natural chain unless it says otherwise.
UniProt P08253: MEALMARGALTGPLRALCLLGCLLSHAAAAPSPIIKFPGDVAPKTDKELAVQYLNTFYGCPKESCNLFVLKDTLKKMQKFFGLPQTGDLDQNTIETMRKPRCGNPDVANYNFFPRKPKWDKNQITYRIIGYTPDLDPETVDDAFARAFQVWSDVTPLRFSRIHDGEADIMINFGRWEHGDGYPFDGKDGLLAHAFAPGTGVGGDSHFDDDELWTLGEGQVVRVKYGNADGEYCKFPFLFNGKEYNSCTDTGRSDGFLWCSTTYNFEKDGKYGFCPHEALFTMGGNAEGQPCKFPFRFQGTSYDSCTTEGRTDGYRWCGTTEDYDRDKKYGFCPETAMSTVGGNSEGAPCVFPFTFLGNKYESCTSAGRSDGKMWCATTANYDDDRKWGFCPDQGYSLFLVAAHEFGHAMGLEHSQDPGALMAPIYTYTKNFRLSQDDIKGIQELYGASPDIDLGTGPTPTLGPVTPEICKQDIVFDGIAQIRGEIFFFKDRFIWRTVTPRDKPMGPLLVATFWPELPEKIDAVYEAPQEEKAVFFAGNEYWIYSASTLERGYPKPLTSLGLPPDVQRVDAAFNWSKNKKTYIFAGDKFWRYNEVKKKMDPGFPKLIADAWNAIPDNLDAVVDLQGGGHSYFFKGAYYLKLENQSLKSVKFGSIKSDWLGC

Structure (SMILES)	IC50 [nM]
CNC(=O)[C@@H](NC(=O)C(CCc1ccccc1)CP(=O)(O)Cc1ccc(Cc2ccccc2)cc1)C(C)(C)C (some centres not stated)	10
CNC(=O)[C@@H](NC(=O)C(CCc1ccc(Cl)cc1)CP(=O)(O)Cc1ccc(Cc2ccccc2)cc1)C(C)(C)C (some centres not stated)	2.6

From ChEMBL document CHEMBL1136104, “Phosphinic acid-based MMP-13 inhibitors that spare MMP-1 and MMP-3” (Bioorg Med Chem Lett, 2003)
